Results are given in words; binding and its absence hold for the method and conditions named. Binding seen in cells or lysates may run through a third protein. Some entries that bind do so weakly or less than the wild type. Blank lines part the entries; values can stand above or below the binder they belong to.
Assays:
[1] = molecular target: NAD-dependent protein deacetylase sirtuin-1 (SIRT1), in GM12878 cells (human (endogenous in GM12878)) (UniProt Q96EB6); experiment: co-IP; in GM12878 cells and in primary mouse B cells; which protein was precipitated is not told
[2] = molecular target: T1, NAD-dependent protein deacetylase sirtuin-1 (SIRT1), in primary mouse B cells (mouse (endogenous in primary mouse B cells)) (UniProt Q923E4); experiment: as above
T1 sequence: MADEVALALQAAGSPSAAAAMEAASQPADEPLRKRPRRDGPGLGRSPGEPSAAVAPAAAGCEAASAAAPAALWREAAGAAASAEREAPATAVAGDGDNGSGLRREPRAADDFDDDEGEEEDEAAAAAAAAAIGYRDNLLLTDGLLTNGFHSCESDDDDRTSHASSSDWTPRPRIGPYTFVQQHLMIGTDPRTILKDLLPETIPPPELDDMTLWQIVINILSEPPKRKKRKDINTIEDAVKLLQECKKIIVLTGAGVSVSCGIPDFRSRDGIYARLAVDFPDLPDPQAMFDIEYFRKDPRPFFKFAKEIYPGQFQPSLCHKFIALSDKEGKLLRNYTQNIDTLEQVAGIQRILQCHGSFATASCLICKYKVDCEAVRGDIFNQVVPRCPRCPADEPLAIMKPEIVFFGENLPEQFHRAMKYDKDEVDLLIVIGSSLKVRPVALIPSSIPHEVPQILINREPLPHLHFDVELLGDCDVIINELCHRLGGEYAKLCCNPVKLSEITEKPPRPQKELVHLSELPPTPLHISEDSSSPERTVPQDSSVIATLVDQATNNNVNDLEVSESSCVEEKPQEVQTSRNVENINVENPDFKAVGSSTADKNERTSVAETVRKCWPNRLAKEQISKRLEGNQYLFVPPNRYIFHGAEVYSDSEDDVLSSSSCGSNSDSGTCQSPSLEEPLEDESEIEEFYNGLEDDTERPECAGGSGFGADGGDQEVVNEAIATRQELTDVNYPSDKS

By UniProt entry, the sequences of proteins in these tests, tags left out.
UniProt Q96EB6: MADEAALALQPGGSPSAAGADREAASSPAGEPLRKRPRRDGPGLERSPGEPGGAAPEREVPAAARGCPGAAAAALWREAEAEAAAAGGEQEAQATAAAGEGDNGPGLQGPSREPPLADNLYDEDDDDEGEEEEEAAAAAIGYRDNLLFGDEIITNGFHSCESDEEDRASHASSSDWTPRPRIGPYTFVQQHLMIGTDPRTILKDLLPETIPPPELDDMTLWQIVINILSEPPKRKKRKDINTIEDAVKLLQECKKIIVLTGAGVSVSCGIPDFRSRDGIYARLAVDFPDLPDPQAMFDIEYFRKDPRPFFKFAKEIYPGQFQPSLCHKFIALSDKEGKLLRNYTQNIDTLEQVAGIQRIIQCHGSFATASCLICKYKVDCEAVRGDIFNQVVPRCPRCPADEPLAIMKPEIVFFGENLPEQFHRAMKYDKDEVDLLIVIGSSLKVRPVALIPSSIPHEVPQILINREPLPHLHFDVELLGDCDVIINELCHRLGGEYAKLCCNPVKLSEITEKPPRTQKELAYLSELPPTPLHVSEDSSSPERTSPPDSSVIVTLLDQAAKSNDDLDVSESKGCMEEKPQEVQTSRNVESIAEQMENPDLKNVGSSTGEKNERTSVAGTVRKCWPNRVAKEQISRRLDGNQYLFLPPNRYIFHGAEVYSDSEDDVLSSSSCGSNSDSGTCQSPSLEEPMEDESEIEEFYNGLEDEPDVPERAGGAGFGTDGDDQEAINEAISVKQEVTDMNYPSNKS

- binding [1]: binds
B1: sentrin-specific protease 7 (SENP7), in GM12878 cells (enzyme, UniProt Q9BQF6 1-1050)
chain: MDKRKLGRRPSSSEIITEGKRKKSSSDLSEIRKMLNAKPEDVHVQSPLSKFRSSERWTLPLQWERSLRNKVISLDHKNKKHIRGCPVTSKSSPERQLKVMLTNVLWTDLGRKFRKTLPRNDANLCDANKVQSDSLPSTSVDSLETCQKLEPLRQSLNLSERIPRVILTNVLGTELGRKYIRTPPVTEGSLSDTDNLQSEQLSSSSDGSLESYQNLNPHKSCYLSERGSQRSKTVDDNSAKQTAHNKEKRRKDDGISLLISDTQPEDLNSGSRGCDHLEQESRNKDVKYSDSKVELTLISRKTKRRLRNNLPDSQYCTSLDKSTEQTKKQEDDSTISTEFEKPSENYHQDPKLPEEITTKPTKSDFTKLSSLNSQELTLSNATKSASAGSTTETVENSNSIDIVGISSLVEKDENELNTIEKPILRGHNEGNQSLISAEPIVVSSDEEGPVEHKSSEILKLQSKQDRETTNENESTSESALLELPLITCESVQMSSELCPYNPVMENISSIMPSNEMDLQLDFIFTSVYIGKIKGASKGCVTITKKYIKIPFQVSLNEISLLVDTTHLKRFGLWKSKDDNHSKRSHAILFFWVSSDYLQEIQTQLEHSVLSQQSKSSEFIFLELHNPVSQREELKLKDIMTEISIISGELELSYPLSWVQAFPLFQNLSSKESSFIHYYCVSTCSFPAGVAVAEEMKLKSVSQPSNTDAAKPTYTFLQKQSSGCYSLSITSNPDEEWREVRHTGLVQKLIVYPPPPTKGGLGVTNEDLECLEEGEFLNDVIIDFYLKYLILEKASDELVERSHIFSSFFYKCLTRKENNLTEDNPNLSMAQRRHKRVRTWTRHINIFNKDYIFVPVNESSHWYLAVICFPWLEEAVYEDFPQTVSQQSQAQQSQNDNKTIDNDLRTTSTLSLSAEDSQSTESNMSVPKKMCKRPCILILDSLKAASVQNTVQNLREYLEVEWEVKLKTHRQFSKTNMVDLCPKVPKQDNSSDCGVYLLQYVESFFKDPIVNFELPIHLEKWFPRHVIKTKREDIRELILKLHLQQQKGSSS

- binding [2]: binds
B2: sentrin-specific protease 7 (SENP7), in primary mouse B cells (enzyme, UniProt Q8BUH8 1-1037)
chain: MDRARPGRRRASSEIVTEGKRKKSSPADLQKITKLLTVKSEDVLAQSPLSKLRGSECWWTRSLRNKVICLDHKKPKAARGCPPKGLPKRHLRVMLTNVLWTDLGREFRKTLPRKDANLCAPSKVQSDSLPSTSVDSIETCQRLDPLHQSLNLSERTPRVILTDIRQTELGRKYLKIPPVTEASLSDTANLKSEQLSSSSDGSLESCQSVNHHKSFLSESGPKPSRTGDVPAKEAACGGQKQGDDGGVTPEMAAPHPKDFNTGNKGCDYLEEGTSNKNTSYSYSEMDHTPVSRKRKKRGRSNFHDSHNSKTSLDKPTEHTKEEENDSSVSRKLEESGEDSHQDPAPPEGLAPESLESEATNLRSFAAGQEPDASAASGRASSPNKSLESSASSEVSENSSVAVKGEALTLKEASPPGGSSEESQLLISAEPIVVSSDEEGPVEHKNSVILKLQPPHEIMSENQGTSDPQLSELTLGACESVQVTSELFPYNPDVENISCIKSNSEMDLKLDFIFTCVYIGKIKGTPKGCVTFTKKYIKIPFQVSTNEISLTVDTARLKRFGLWESKDEDHSKRSHAILFLWLSSDYLQDIQTQLENPMLSQQSKANEFIFLELNSSISQREELKLKDIMMEISTKNGNLHLSCPLPWVQALPLFQDLSPQEISFLHYYYASASALPTAAGADMKKKSVSQPSNSDTIKPTYTFLHKQSSGCYSLSITSSPEEEWQEVRNTGPVQKLIVYPPPPTKGGLGVTNEDLECLEEGEFLNDVIIDFYLKYLLLEKASDELVERSHIFSSFFYKCLTRKENNLTEDNPDLSVAQRRHRRVRTWTRHINIFNKDYIFVPVNESSHWYLAVICFPWLEEAVYEDCPQTVSQQFQGQQSQHDHKMTDNDPHTTSTVSTSAEDSQSTEVNMSVPKKMCKRPCILILDSLKAASIQNTVQNLREYLEVEWEVKRKTHREFSKTNMVDLCPKVPKQDNSSDCGVYLLQYVESFFQDPIVNFELPIHLEKWFPRHVIKTKREDIRELILKLHLQQQKGGSC

From article PMC12681700
